The values that follow come from the supplement of paper PMC4604168 (melanoma cell lines).

Some of the results follow. Single values are uncertain, as repeats are few or missing.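 Imaging used 1,536-well plates; nuclei positive for cleaved PARP by antibody were divided by total DNA-stained nuclei to yield the apoptosis fraction. Doses for screening kept most cells viable, and cell lines differ markedly in resting and induced cleaved-PARP levels.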

The assay concerns CBRC017 (line from a melanoma biopsy). The assay is described as follows: cleaved PARP positive nuclei fraction relative to DMSO control; melanoma cells; higher = more apoptosis. Particulars: library dose: low library concentration; 72 h.
Regarding `Cn1c(=O)n(-c2ccc(C(C)(C)C#N)cc2)c2c3cc(-c4cnc5ccccc5c4)ccc3ncc21` + CN1CCN(c2ccc3nc(-c4c(N)c5c(F)cccc5[nH]c4=O)[nH]c3c2)CC1 [Dovitinib] (first compound 0.004 µM, partner dose 0.1 µM), the “cleaved PARP positive nuclei fraction” value is 88.7%.

Regarding `O=C(O)c1ccc2c(c1)nc(Nc1cccc(Cl)c1)c1ccncc12` + COc1ccc(Cl)c(Nc2nc3ccccc3nc2NS(=O)(=O)c2cccc(NC(=O)C(C)(C)N)c2)c1 [XL147] (first compound 0.4 µM, partner dose 0.8 µM), the “cleaved PARP positive nuclei fraction” value is 242%.

Consider `CNC(=O)c1cc(Oc2ccc(NC(=O)Nc3ccc(Cl)c(C(F)(F)F)c3)cc2)ccn1` [sorafenib] + OCc1c[nH]c2ccccc12 [Indole-3-carbinol] (first compound 0.4 µM, partner dose 0.8 µM), for which the “cleaved PARP positive nuclei fraction” value was 112%.

`CO[C@H]1C[C@@H]2CC[C@@H](C)[C@@](O)(O2)C(=O)C(=O)N2CCCC[C@H]2C(=O)O[C@H]([C@H](C)C[C@@H]2CC[C@@H](OCCO)[C@H](OC)C2)CC(=O)[C@H](C)/C=C(\C)[C@@H](O)[C@@H](OC)C(=O)[C@H](C)C[C@H](C)/C=C/C=C/C=C/1C` [everolimus] + O=C(O)c1ccc2c(c1)nc(Nc1cccc(Cl)c1)c1ccncc12 [CX4945] (first compound 0.02 µM, partner dose 0.4 µM): the “cleaved PARP positive nuclei fraction” value was 203%.

Take `Cn1c(=O)n(-c2ccc(C(C)(C)C#N)cc2)c2c3cc(-c4cnc5ccccc5c4)ccc3ncc21` + O=C(O)c1ccc2c(c1)nc(Nc1cccc(Cl)c1)c1ccncc12 [CX4945] (first compound 0.004 µM, partner dose 0.4 µM): the “cleaved PARP positive nuclei fraction” value is 136%.

Regarding `CNC(=O)c1cc(Oc2ccc(NC(=O)Nc3ccc(Cl)c(C(F)(F)F)c3)cc2)ccn1` [sorafenib] + Cn1c(Nc2ccc(C(F)(F)F)cc2)nc2cc(Oc3ccnc(-c4ncc(C(F)(F)F)[nH]4)c3)ccc21 [CHIR265] (first compound 0.4 µM, partner dose 0.08 µM), the “cleaved PARP positive nuclei fraction” value came out at 111%.

For the compound `Cc1cc(Nc2cc(N3CCN(C)CC3)nc(/C=C/c3ccccc3)n2)n[nH]1` + NC1(c2ccc(-c3nc4ccn5c(=O)[nH]nc5c4cc3-c3ccccc3)cc2)CCC1 [MK2206] (first compound 0.04 µM, partner dose 0.4 µM), the “cleaved PARP positive nuclei fraction” value was 121%.

For `CC(C)C[C@H](NC(=O)[C@H](Cc1ccccc1)NC(=O)c1cnccn1)B(O)O` [Bortezomib] + CS(=O)(=O)CCNCc1ccc(-c2ccc3ncnc(Nc4ccc(OCc5cccc(F)c5)c(Cl)c4)c3c2)o1 [lapatinib] (first compound 0.001 µM, partner dose 0.8 µM), the “cleaved PARP positive nuclei fraction” value was 263%.

As for `CO[C@H]1C[C@@H]2CC[C@@H](C)[C@@](O)(O2)C(=O)C(=O)N2CCCC[C@H]2C(=O)O[C@H]([C@H](C)C[C@@H]2CC[C@@H](OCCO)[C@H](OC)C2)CC(=O)[C@H](C)/C=C(\C)[C@@H](O)[C@@H](OC)C(=O)[C@H](C)C[C@H](C)/C=C/C=C/C=C/1C` [everolimus] + Cn1nnc2c(C(N)=O)ncn2c1=O [temozolomide] (first compound 0.02 µM, partner dose 2 µM), the “cleaved PARP positive nuclei fraction” value is 145%.

Take `O=C(O)[C@@H]1[O][Sb](=[O])([O][Sb]2(=[O])[O][C@H]([C@H](O)CO)[C@H](O)[C@H](C(=O)O)[O]2)[O][C@H]([C@H](O)CO)[C@@H]1O` (some centres not stated) [stibogluconate] + C#Cc1cccc(Nc2ncnc3cc(OCCOC)c(OCCOC)cc23)c1 [erlotinib] (first compound 2 µM, partner dose 0.8 µM): the “cleaved PARP positive nuclei fraction” value is 101%.

`C=C(c1ccc(C(=O)O)cc1)c1cc2c(cc1C)C(C)(C)CCC2(C)C` [Bexarotene] + Nc1nc(F)nc2c1ncn2[C@@H]1O[C@H](CO)[C@@H](O)[C@@H]1O [fludarabine] (first compound 2 µM, partner dose 0.2 µM): the “cleaved PARP positive nuclei fraction” value amounted to 130%.

As to `CNC(=O)c1cc(Oc2ccc(NC(=O)Nc3ccc(Cl)c(C(F)(F)F)c3)cc2)ccn1` [sorafenib] + C=CCNC1=C2C[C@@H](C)C[C@H](OC)[C@H](O)[C@@H](C)/C=C(\C)[C@H](OC(N)=O)[C@@H](OC)/C=C\C=C(/C)C(=O)NC(=CC1=O)C2=O [Tanespimycin] (first compound 0.4 µM, partner dose 0.002 µM), the “cleaved PARP positive nuclei fraction” value came to 110%.

As to `Cn1c(=O)n(-c2ccc(C(C)(C)C#N)cc2)c2c3cc(-c4cnc5ccccc5c4)ccc3ncc21` + Nc1ncn([C@H]2C[C@H](O)[C@@H](CO)O2)c(=O)n1 [decitabine] (first compound 0.004 µM, partner dose 0.1 µM), the “cleaved PARP positive nuclei fraction” value stood at 116%.

For the compound `CC(C)C[C@H](NC(=O)[C@H](Cc1ccccc1)NC(=O)c1cnccn1)B(O)O` [Bortezomib] + C=C(c1ccc(C(=O)O)cc1)c1cc2c(cc1C)C(C)(C)CCC2(C)C [Bexarotene] (first compound 0.001 µM, partner dose 2 µM), the “cleaved PARP positive nuclei fraction” value amounted to 178%.

Consider `CCCS(=O)(=O)Nc1ccc(F)c(C(=O)c2c[nH]c3ncc(Cl)cc23)c1F` + COCC[n+]1c2c(n(Cc3cnccn3)c1C)C(=O)c1ccccc1C2=O [YM155] (first compound 0.08 µM, partner dose 0.0004 µM), for which the “cleaved PARP positive nuclei fraction” value turned out to be 103%.

Consider `CN1CCN(c2ccc3nc(-c4c(N)c5c(F)cccc5[nH]c4=O)[nH]c3c2)CC1` [Dovitinib] + Cn1c(Nc2ccc(C(F)(F)F)cc2)nc2cc(Oc3ccnc(-c4ncc(C(F)(F)F)[nH]4)c3)ccc21 [CHIR265] (first compound 0.1 µM, partner dose 0.08 µM), for which the “cleaved PARP positive nuclei fraction” value stood at 76.9%.

Take `Cn1c(=O)n(-c2ccc(C(C)(C)C#N)cc2)c2c3cc(-c4cnc5ccccc5c4)ccc3ncc21` + Cn1nnc2c(C(N)=O)ncn2c1=O [temozolomide] (first compound 0.004 µM, partner dose 2 µM): the “cleaved PARP positive nuclei fraction” value came out at 221%.

With `CC(C)C[C@H](NC(=O)[C@H](Cc1ccccc1)NC(=O)c1cnccn1)B(O)O` [Bortezomib] + C[C@@H](Oc1cc(-c2cnn(C3CCNCC3)c2)cnc1N)c1c(Cl)ccc(F)c1Cl [Crizotinib] (first compound 0.001 µM, partner dose 0.2 µM), the “cleaved PARP positive nuclei fraction” value turned out to be 213%.

For `O=C(O)[C@@H]1[O][Sb](=[O])([O][Sb]2(=[O])[O][C@H]([C@H](O)CO)[C@H](O)[C@H](C(=O)O)[O]2)[O][C@H]([C@H](O)CO)[C@@H]1O` (some centres not stated) [stibogluconate] + OCc1c[nH]c2ccccc12 [Indole-3-carbinol] (first compound 2 µM, partner dose 0.8 µM), the “cleaved PARP positive nuclei fraction” value is 68.2%.

Regarding `C=C(c1ccc(C(=O)O)cc1)c1cc2c(cc1C)C(C)(C)CCC2(C)C` [Bexarotene] + Cn1nnc2c(C(N)=O)ncn2c1=O [temozolomide] (first compound 2 µM, partner dose 2 µM), the “cleaved PARP positive nuclei fraction” value was determined as 96.3%.

`Nc1ncn([C@H]2C[C@H](O)[C@@H](CO)O2)c(=O)n1` [decitabine] + C[C@]1(c2nc3c(C(N)=O)cccc3[nH]2)CCCN1 [Veliparib] (first compound 0.1 µM, partner dose 1.4 µM): the “cleaved PARP positive nuclei fraction” value is 93.7%.

On to `CN1CCN(c2ccc3nc(-c4c(N)c5c(F)cccc5[nH]c4=O)[nH]c3c2)CC1` [Dovitinib] + Nc1nc(F)nc2c1ncn2[C@@H]1O[C@H](CO)[C@@H](O)[C@@H]1O [fludarabine] (first compound 0.1 µM, partner dose 0.2 µM), for which the “cleaved PARP positive nuclei fraction” value is 89.4%.

Turning to `CO[C@H]1C[C@@H]2CC[C@@H](C)[C@@](O)(O2)C(=O)C(=O)N2CCCC[C@H]2C(=O)O[C@H]([C@H](C)C[C@@H]2CC[C@@H](OCCO)[C@H](OC)C2)CC(=O)[C@H](C)/C=C(\C)[C@@H](O)[C@@H](OC)C(=O)[C@H](C)C[C@H](C)/C=C/C=C/C=C/1C` [everolimus] + Clc1ccc(Nc2nnc(Cc3ccncc3)c3ccccc23)cc1 [vatalanib] (first compound 0.02 µM, partner dose 2 µM), the “cleaved PARP positive nuclei fraction” value is 139%.

As for `CO[C@H]1C[C@@H]2CC[C@@H](C)[C@@](O)(O2)C(=O)C(=O)N2CCCC[C@H]2C(=O)O[C@H]([C@H](C)C[C@@H]2CC[C@@H](OCCO)[C@H](OC)C2)CC(=O)[C@H](C)/C=C(\C)[C@@H](O)[C@@H](OC)C(=O)[C@H](C)C[C@H](C)/C=C/C=C/C=C/1C` [everolimus] + C#Cc1cccc(Nc2ncnc3cc(OCCOC)c(OCCOC)cc23)c1 [erlotinib] (first compound 0.02 µM, partner dose 0.8 µM), the “cleaved PARP positive nuclei fraction” value was found to be 117%.

For the compound `CS(=O)(=O)CCNCc1ccc(-c2ccc3ncnc(Nc4ccc(OCc5cccc(F)c5)c(Cl)c4)c3c2)o1` [lapatinib] + OCc1c[nH]c2ccccc12 [Indole-3-carbinol] (first compound 0.8 µM, partner dose 0.8 µM), the “cleaved PARP positive nuclei fraction” value was 97.4%.

On to `C[C@@H](Oc1cc(-c2cnn(C3CCNCC3)c2)cnc1N)c1c(Cl)ccc(F)c1Cl` [Crizotinib] + Nc1ccn([C@@H]2O[C@H](CO)[C@@H](O)C2(F)F)c(=O)n1 [gemcitabine] (first compound 0.2 µM, partner dose 0.0004 µM), for which the “cleaved PARP positive nuclei fraction” value is 112%.

Turning to `O=C(O)[C@@H]1[O][Sb](=[O])([O][Sb]2(=[O])[O][C@H]([C@H](O)CO)[C@H](O)[C@H](C(=O)O)[O]2)[O][C@H]([C@H](O)CO)[C@@H]1O` (some centres not stated) [stibogluconate] + COc1ccc(Cl)c(Nc2nc3ccccc3nc2NS(=O)(=O)c2cccc(NC(=O)C(C)(C)N)c2)c1 [XL147] (first compound 2 µM, partner dose 0.8 µM), the “cleaved PARP positive nuclei fraction” value amounted to 138%.
